These are yes or no findings as the source states them, for the method shown. Binding seen in cells or lysates may run through a third protein. These calls come from enrichment with a bait or labelling near it, and not all partners need be listed. No binding means not detected with the bait.

By UniProt entry, the sequences of proteins in these tests, tags left out.
UniProt O55143: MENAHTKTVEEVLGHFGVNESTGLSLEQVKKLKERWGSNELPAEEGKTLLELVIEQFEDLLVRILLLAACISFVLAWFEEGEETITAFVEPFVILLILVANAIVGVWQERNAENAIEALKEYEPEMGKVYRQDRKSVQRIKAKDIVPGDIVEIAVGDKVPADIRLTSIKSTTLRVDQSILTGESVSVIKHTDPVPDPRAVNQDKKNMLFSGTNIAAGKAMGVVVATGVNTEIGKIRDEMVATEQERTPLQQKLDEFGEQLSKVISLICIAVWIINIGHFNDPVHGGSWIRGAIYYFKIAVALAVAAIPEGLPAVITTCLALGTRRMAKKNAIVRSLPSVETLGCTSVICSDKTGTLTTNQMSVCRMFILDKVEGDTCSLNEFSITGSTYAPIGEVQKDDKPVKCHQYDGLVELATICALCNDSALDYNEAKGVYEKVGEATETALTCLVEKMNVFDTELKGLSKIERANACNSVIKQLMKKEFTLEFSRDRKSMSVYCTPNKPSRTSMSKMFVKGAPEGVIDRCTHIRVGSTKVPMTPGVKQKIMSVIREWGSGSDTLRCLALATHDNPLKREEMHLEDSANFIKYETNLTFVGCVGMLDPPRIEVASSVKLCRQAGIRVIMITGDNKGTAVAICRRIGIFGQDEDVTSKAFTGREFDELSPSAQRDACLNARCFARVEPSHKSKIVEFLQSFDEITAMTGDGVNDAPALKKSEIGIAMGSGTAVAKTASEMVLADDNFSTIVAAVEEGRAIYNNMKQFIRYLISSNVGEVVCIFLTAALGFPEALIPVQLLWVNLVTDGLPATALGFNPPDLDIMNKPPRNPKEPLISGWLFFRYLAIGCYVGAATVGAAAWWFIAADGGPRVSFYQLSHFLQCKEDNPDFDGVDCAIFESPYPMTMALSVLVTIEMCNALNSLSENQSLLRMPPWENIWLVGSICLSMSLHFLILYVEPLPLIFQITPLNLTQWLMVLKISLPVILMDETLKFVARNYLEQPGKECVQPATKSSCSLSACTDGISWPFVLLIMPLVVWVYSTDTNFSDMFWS

Assay [1] concerns the target T1, phospholamban (PLN) (mouse (endogenous in mouse heart)) (UniProt P61014).
T1 sequence: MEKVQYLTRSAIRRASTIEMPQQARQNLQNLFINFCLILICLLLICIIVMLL
The experiment in a line: affinity purification with mass spectrometry; IP-MS: unfixed, snap-frozen mouse hearts, RIPA lysate; 1 mg soluble protein with 2 μg PLN antibody overnight at 4 °C, protein A/G beads, on-bead trypsin digestion, DIA MS; mock IP without primary antibody as control.

Assay [2] addresses T1, phospholamban (PLN) (mouse (endogenous in mouse heart)). Nature of the assay: affinity purification with mass spectrometry; xIP-MS: mouse hearts fixed (cross-linked) overnight in 3 % glyoxal, RIPA lysate; 1 mg soluble protein with 2 μg PLN antibody overnight at 4 °C, protein A/G beads, on-bead trypsin digestion, DIA MS; mock IP without primary antibody as control.

On to “sarco(endo)plasmic reticulum Ca2+ ATPase (SERCA2) (from UniProt O55143 1-1044)”, for which the binding entry in assay [1] and in assay [2] was “binds” each time.
“calmodulin-dependent protein kinase II (CaMKII) (mouse (endogenous in mouse heart)) (enzyme)”: the binding entry in assay [1] and in assay [2] was “no binding” in each case.

Source of the values: paper PMC12145851.
